# Assay: general procedure: Boc solid-phase peptide synthesis; benzhydrylamine (BHA) resin or chloromethylated polystyrene resin 1% cross-linked with divinylbenzene; DIC
# Conditions: cyclisation step, analytical HPLC
substance,measurement,value
Phe-Glu-Trp-Ala-Val-Gly-His-Leu-psi -Tpi-NH2,final HPLC purity,>95%
